Measurements published in PubChem BioAssay AID651550 (National Center for Advancing Translational Sciences (NCATS), 2012).
About 1,100 (0.31%) of roughly 360,000 compounds were called active. This list was built around the results that the source calls inconclusive (neither active nor inactive); the mix of calls is not that of the screen. No stated cut-off is given here; in the data, active means activity change below about -80%; inconclusive means mostly about -51% to -80%; inactive means weaker than that.

target: RAC-alpha serine/threonine-protein kinase (Homo sapiens) (UniProt P31749); test: HTS Assay for Inhibitors of Akt Phophorylation: Primary Screen; conditions: Neuro2A IGF-stimulated pAkt S473 HTRF, 20 min; at 50 µM, stronger effect = lower value
Summary of the method: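 Neuro2A cells (4,500/well, DMEM with 0.5% FBS) were treated with compound at a single 50 µM final concentration, stimulated with 6 nM IGF for 20 min at 37 °C, and lysed. Phospho-Akt Ser473 was read by HTRF as 665/615 ratio ×10^4.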
On the % scale 0 is the no-effect control and ±100 the full control effect.

| Compound | activity change |
| --- | --- |
| Cc1nn(-c2ccccc2)c(Cl)c1/C=N/Nc1ccc(S(=O)(=O)Nc2ccccc2C(=O)O)cc1[N+](=O)[O-] | inconclusive: -72.1% |
| CCCc1nc(SCC(=O)N2CCCc3ccccc32)c2c(=O)n(C)c(=O)n(C)c2n1 | inactive |
| COc1cc(/C=N/NC(=O)C2=NNC(=O)C2C)ccc1O (centres undefined) | inactive |
| CC(=O)c1ccc(NC2OC(CO)C(O)C(O)C2O)cc1 (centres undefined) | inconclusive: -59.2% |
| O=C(/C=N/O)Nc1ccc2sc3ccccc3c2c1 | inactive |
| CCOC(=O)c1c(C)nc2sc3c(=O)n(-c4ccc(OC)cc4)cnc3c2c1-c1ccc(OC)cc1 | active: -111% |
| CNC(=O)CSc1nnc(-c2ccncc2)n1Cc1ccccc1 | active: -112% |
| N#Cc1ccc(-c2ccc(F)cc2)nc1SCC(=O)Nc1sc2c(c1C#N)CCC2 | inconclusive: -66.6% |
| Brc1ccc2c(c1)C(c1cccs1)=NNC(c1cccnc1)=N2 | inconclusive: -52.4% |
| O=C(NCc1ccccc1)c1ccc2c(=O)n(CCCN3CCCC3=O)c(=S)[nH]c2c1 | inconclusive: -63.1% |
| COc1ccc(-c2cc(C(F)(F)F)c(C#N)c(SCC(=O)Nc3nc(C)co3)n2)cc1 | inconclusive: -79.1% |
| C=CCn1c(SCC(=O)Nc2ccc(C(=O)OCC)cc2)nnc1-c1cccs1 | inconclusive: -62.5% |
| COc1ccc(-n2ncc3c(=O)n(CC(=O)N4CCCc5ccccc54)cnc32)cc1 | inconclusive: -68.1% |
| Cc1cc(Cl)c2oc(C(=O)N3CCN(c4cccc(C)n4)CC3)c(C)c2c1 | inactive |
| Cc1cc(=O)oc2cc(OCCc3ccccc3)ccc12 | inactive |
| COc1ccc(-c2ccc(-c3noc(C)n3)c(OC)n2)cc1 | inconclusive: -65.2% |
| COc1ccccc1C1C(C(=O)c2cc3ccccc3o2)=C(O)C(=O)N1CCN(C)C (centres undefined) | inconclusive: -54% |
| Cc1ccc(C)c(C2=NNC(=NCc3ccccc3)SC2)c1 | inactive |
| Cc1ccc(NC(=O)CSc2nc3ccccc3c(=O)n2CCCN2CCCCC2)cc1Cl | inactive |
| Cc1ccc2[nH]c(=O)c(C(c3nnnn3C(C)(C)C)N(Cc3ccco3)CC3CCCO3)cc2c1 (centres undefined) | inconclusive: -60.3% |

Some of the entries so far, with tabs.
Compound	activity change
COc1cc(/C=N/NC(=O)C2=NNC(=O)C2C)ccc1O (centres undefined)	inactive
CC(=O)c1ccc(NC2OC(CO)C(O)C(O)C2O)cc1 (centres undefined)	inconclusive: -59.2%
O=C(/C=N/O)Nc1ccc2sc3ccccc3c2c1	inactive

The results go on.

| Compound | activity change |
| --- | --- |
| Cc1ccc(NC(=O)CCC(=O)N/N=C/c2coc3ccc(F)cc3c2=O)cc1 | inactive |
| Cc1cc(-c2nnc3sc(-c4ccc(Cl)cc4Cl)nn23)n[nH]1 | inconclusive: -70% |
| S=c1[nH]nc(COc2ccccc2)n1Cc1ccccc1 | inactive |
| CC(C)OCCCn1c(-c2ccco2)nc2nc3ccccc3nc21 | inconclusive: -68.8% |
| CCNc1nc(N)nc(Oc2ccc(C(=O)OC)cc2)n1 | active: -95% |
| COCC(C)NC(=O)C1CC(c2cccc(Br)c2)=NO1 (centres undefined) | active: -111% |
| Cc1[nH]nc2c1C(=O)CC(C)(C)C2 | active: -110% |
| CCOC(=O)c1sc(NC(=O)c2c(OC)cccc2OC)nc1C | active: -119% |
| Cc1cc(C)c(Cn2c(=O)n(CCCC(=O)NCc3ccco3)c(=O)c3sccc32)c(C)c1 | inconclusive: -65.6% |
| COc1ccc(CCNC(=O)c2c(O)c3cccc4c3n(c2=O)CC4)cc1OC | inconclusive: -69.6% |
| COCCOC(=O)c1c(C)nc(SCC(=O)Nc2ccc(OC)cc2)c(C#N)c1-c1ccco1 | inconclusive: -50.9% |
| O=C(CSc1ncnc2c1oc1ccccc12)c1cccs1 | inconclusive: -54.4% |
| CCOC(=O)/C(C#N)=C/c1ccc(OCC(=O)Nc2cc(C)ccc2C)c(OC)c1 | active: -82.1% |
| Cc1ccccc1OC(=O)c1cccc(S(=O)(=O)N2CCN(C)CC2)c1 | inactive |
| S=C(NCCC1=CCCCC1)Nc1ccccc1 | active: -117% |
| O=c1[nH]c2cc3c(cc2cc1C(c1nnnn1C1CCCCC1)N1CCSCC1)OCCO3 (centres undefined) | inconclusive: -60.5% |
| O=C(O)C1CC(=O)N(c2ccc(Br)cc2)C1 (centres undefined) | inconclusive: -56.9% |
| Cc1nc(SCC(=O)Nc2ccccc2)c2oc3ccccc3c2n1 | active: -115% |
| Cc1cc(=O)[nH]c(SCn2nnc3ccccc3c2=O)n1 | active: -98.9% |
| CCCCC(c1nnnn1CCOC)N1CCN(C(=O)c2ccco2)CC1 (centres undefined) | inactive |

| Compound | activity change |
| --- | --- |
| COc1ccc(N2CCN(c3ccc(NC(=O)c4ccc5c(c4)OCO5)cc3C#N)CC2)cc1 | inconclusive: -50.6% |
| COc1cccc(OCCCN2CCN(S(=O)(=O)c3ccc(NC(C)=O)cc3)CC2)c1 | inconclusive: -67.2% |
| CC(=O)[C@@H]1[C@@H]2C(=O)N(Cc3ccccc3)C(=O)[C@@H]2C2c3ccccc3C=CN21 (some centres undefined) | inconclusive: -61% |
| N#Cc1c(-c2ccc(Cl)cc2)ccn2nc(C3CCCCC3)nc12 | inconclusive: -74.6% |
| Clc1cccc(Cl)c1COn1nnc2ccccc21 | inconclusive: -73.1% |
| CCOC(=O)C1=C(C)OC(N)=C(C#N)C1C1CCCCC1 (centres undefined) | active: -118% |
| CCC(C)OC(=O)c1cc(C)nc2c(Br)cc(Br)cc12 (centres undefined) | inconclusive: -58.7% |
| Cc1noc(C)c1C(=O)Nc1sc2c(c1C(N)=O)CCC2 | inconclusive: -57.5% |
| CCOc1ccc(/C=C2/SC(=S)N(n3c(C)ccc3C)C2=O)cc1 | inconclusive: -57.2% |
| CC(C)(C)c1ccc(-c2n[nH]c(=S)n2C2CCCC2)cc1 | inconclusive: -58.5% |
| O=C(NCc1ccco1)c1cc2sccc2n1Cc1ccccc1 | inconclusive: -71.9% |
| COc1ccc(NS(=O)(=O)c2ccc(Br)s2)cc1OC | inconclusive: -67.7% |
| Cc1cccc(NC(=O)c2cc(C)nc3ccccc23)c1 | inactive |
| CCC(=O)Nc1ccccc1C(=O)OCC(=O)Nc1ccc(S(N)(=O)=O)cc1 | inconclusive: -58.6% |
| O=S(=O)(c1ccccc1)c1cnn2c(C(F)(F)F)cc(-c3ccccc3)nc12 | active: -89.7% |
| CCOC(=O)c1c(C)c(C(=O)Nc2ccc(N(C)C)cc2)c(C)n1CC | inconclusive: -64.1% |
| Cc1ccc2[nH]c3c(=O)n(Cc4ccncc4)cnc3c2c1 | inconclusive: -52.8% |
| COc1ccc(Cc2nnc(Nc3ccc(C)cc3C)[nH]c2=O)cc1 | active: -122% |
| COc1ccc(C(=O)OCc2cc3cccc(C)c3[nH]c2=O)cc1 | inconclusive: -77.2% |
